Reference: PubChem BioAssay AID686937 (Drosophila RNAi Screening Center, 2013)
The deposit covers about 23,000 reagents; this is an unselected part of those that have a named target and a result. 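Reduced-secretion tags in replicate 1 do not always agree with the z-scores; no criterion for assigning the tags was given.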 A plus sign joins genes that one reagent is predicted to hit. Not all columns of the deposit are shown. No sequences are given here. Not stated in the record: the amount of reagent.

Screen: 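Genes in the fly needed for secretion of protein constitutively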 (primary screen)
Cell system: Drosophila S2 cells expressing secreted horseradish peroxidase
Reagents: long dsRNA against Drosophila genes
Timing: about 5.5 days (5 days dsRNA, then 12 h reporter induction)
Challenge: reporter expression induced after 5 days of dsRNA, read 12 h later; inducer not stated
Detection: 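After 5 days of dsRNA and 12 h of reporter induction, medium peroxidase read by chemiluminescence and scored as per-plate z-score; higher values mean more reporter released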
Scale: z-score: higher = more reporter secreted into medium

With knock-down of Efhc1.1 [DRSC20135], the screen gave z-score, replicate 1 = 0.27. For CG14929 + CG14930 [DRSC02412] the deposit lists z-score, replicate 1 = 0.25. Depletion of CG2691 [DRSC19866] gave: z-score, replicate 1 = -2.05. prim [DRSC06575] scored z-score, replicate 1 = 0.44. Depletion of Nup214 [DRSC04421] came out at: z-score, replicate 1 = -1.74. CG42675 [DRSC12157] gave z-score, replicate 1 = 0.42.

CG42675 [DRSC21868] gave z-score, replicate 1 = 0.47. twit [DRSC03210] showed z-score, replicate 1 = 0.36. Depletion of CG4702 [DRSC15626] resulted in: z-score, replicate 1 = 0.26. pds5 [DRSC06670] scored z-score, replicate 1 = -0.29. With knock-down of Cad89D [DRSC15022], the record shows z-score, replicate 1 = -0.23. Silencing of Rsph9 [DRSC01594] resulted in: z-score, replicate 1 = -0.31.

Against VhaM9.7-d [DRSC15028] the deposit lists z-score, replicate 1 = 0.07. Arpc4 [DRSC02917] scored z-score, replicate 1 = -0.13. After knock-down of lncRNA:CR32027 [DRSC09571], the screen gave z-score, replicate 1 = 0.43. For CG12910 [DRSC06225] the deposit lists z-score, replicate 1 = 0.52. With knock-down of rept [DRSC11388], the screen gave z-score, replicate 1 = -0.78. With knock-down of CG15336 [DRSC18019], the record shows z-score, replicate 1 = 0.37.

After knock-down of CG9289 [DRSC03187], the screen gave z-score, replicate 1 = 0.4. CG13054 [DRSC09935] gave z-score, replicate 1 = 0.04. After knock-down of CG3515 [DRSC00609] the results were z-score, replicate 1 = 0.46. After knock-down of app [DRSC09159], the screen gave z-score, replicate 1 = 0.38. app [DRSC10246] scored z-score, replicate 1 = 0.28. Depletion of app [DRSC10526] resulted in: z-score, replicate 1 = 0.46.

For CG5961 [DRSC15927], the values are z-score, replicate 1 = 0.43. Against RIOK2 [DRSC14413], the entry reads z-score, replicate 1 = 0.19. Gpb5 [DRSC21241] scored z-score, replicate 1 = 0.64.

Ordered by “z-score, replicate 1” (high to low): 4 of the entries above.
CG3515 [DRSC00609] → z-score, replicate 1 = 0.46
app [DRSC09159] → z-score, replicate 1 = 0.38
app [DRSC10246] → z-score, replicate 1 = 0.28
CG13054 [DRSC09935] → z-score, replicate 1 = 0.04
